Results: US9925222B2, “Gut barrier dysfunction treatment and prevention” (ALBERT EINSTEIN COLLEGE OF MEDICINE OF YESHIVA UNIVERSITY, priority 2012, dated 2018)
For at least one compound, name, drawing or mass did not settle the structure.

System: TLR4 and MDR-1 gene transcription
Assay: Nuclear run-on transcription assay in LS174T cells
Format: cell-based, human
Details: rifampicin treated LS174T cells, various time-points

For CO[C@H]1/C=C/O[C@@]2(C)Oc3c(C)c(O)c4c(O)c(c(/C=N/N5CCN(C)CC5)c(O)c4c3C2=O)NC(=O)/C(C)=C\C=C\[C@H](C)[C@H](O)[C@@H](C)[C@@H](O)[C@@H](C)[C@H](OC(C)=O)[C@@H]1C [rifampicin], the “MDR-1 gene transcription (nuclear run-on)” value was “steady increase in MDR-1 gene transcription” and the “TLR4 gene transcription (nuclear run-on)” value was “TLR4 gene transcription did not change”.
